Test results: paper PMC3046540
These are yes or no findings as the source states them, for the method shown. Binding seen in cells or lysates may run through a third protein. Some entries that bind do so weakly or less than the wild type.

Amino acid sequences for entries named in this document (tags omitted).
UniProt Q96KQ7: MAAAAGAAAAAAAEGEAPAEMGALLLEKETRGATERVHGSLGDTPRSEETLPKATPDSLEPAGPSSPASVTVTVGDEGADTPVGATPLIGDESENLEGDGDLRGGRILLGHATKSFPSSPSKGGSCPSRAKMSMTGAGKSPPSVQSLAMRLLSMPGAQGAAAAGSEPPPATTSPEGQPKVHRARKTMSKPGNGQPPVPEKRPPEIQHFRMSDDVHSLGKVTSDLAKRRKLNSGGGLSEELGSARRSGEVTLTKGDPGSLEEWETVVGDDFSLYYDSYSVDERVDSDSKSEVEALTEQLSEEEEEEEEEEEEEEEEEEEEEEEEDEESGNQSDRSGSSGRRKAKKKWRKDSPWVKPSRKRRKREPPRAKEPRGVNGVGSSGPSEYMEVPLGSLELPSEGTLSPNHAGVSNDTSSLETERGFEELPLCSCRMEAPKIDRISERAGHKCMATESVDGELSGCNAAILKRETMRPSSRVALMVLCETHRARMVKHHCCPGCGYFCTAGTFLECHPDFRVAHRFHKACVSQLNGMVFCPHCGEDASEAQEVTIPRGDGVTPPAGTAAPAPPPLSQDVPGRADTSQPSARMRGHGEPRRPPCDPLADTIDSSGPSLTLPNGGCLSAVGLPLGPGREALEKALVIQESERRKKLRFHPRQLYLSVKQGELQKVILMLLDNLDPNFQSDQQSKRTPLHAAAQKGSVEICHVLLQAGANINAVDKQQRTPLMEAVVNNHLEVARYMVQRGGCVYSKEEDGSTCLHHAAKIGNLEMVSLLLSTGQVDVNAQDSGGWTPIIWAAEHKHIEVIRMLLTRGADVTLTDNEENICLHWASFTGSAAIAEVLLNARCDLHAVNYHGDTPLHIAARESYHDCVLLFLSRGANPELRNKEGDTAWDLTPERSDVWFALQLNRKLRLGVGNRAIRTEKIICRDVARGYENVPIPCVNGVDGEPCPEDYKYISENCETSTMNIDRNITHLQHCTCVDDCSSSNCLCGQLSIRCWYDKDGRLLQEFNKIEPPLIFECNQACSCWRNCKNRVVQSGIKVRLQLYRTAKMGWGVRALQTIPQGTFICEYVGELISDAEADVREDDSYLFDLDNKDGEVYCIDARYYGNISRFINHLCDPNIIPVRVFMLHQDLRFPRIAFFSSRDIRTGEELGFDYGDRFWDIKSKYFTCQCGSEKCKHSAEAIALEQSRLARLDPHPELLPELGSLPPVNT

Target: T1, Regulatory factor X-box 1 (RFX1) (human (endogenous in CD4+ T cells)) (UniProt P22670)
T1 sequence: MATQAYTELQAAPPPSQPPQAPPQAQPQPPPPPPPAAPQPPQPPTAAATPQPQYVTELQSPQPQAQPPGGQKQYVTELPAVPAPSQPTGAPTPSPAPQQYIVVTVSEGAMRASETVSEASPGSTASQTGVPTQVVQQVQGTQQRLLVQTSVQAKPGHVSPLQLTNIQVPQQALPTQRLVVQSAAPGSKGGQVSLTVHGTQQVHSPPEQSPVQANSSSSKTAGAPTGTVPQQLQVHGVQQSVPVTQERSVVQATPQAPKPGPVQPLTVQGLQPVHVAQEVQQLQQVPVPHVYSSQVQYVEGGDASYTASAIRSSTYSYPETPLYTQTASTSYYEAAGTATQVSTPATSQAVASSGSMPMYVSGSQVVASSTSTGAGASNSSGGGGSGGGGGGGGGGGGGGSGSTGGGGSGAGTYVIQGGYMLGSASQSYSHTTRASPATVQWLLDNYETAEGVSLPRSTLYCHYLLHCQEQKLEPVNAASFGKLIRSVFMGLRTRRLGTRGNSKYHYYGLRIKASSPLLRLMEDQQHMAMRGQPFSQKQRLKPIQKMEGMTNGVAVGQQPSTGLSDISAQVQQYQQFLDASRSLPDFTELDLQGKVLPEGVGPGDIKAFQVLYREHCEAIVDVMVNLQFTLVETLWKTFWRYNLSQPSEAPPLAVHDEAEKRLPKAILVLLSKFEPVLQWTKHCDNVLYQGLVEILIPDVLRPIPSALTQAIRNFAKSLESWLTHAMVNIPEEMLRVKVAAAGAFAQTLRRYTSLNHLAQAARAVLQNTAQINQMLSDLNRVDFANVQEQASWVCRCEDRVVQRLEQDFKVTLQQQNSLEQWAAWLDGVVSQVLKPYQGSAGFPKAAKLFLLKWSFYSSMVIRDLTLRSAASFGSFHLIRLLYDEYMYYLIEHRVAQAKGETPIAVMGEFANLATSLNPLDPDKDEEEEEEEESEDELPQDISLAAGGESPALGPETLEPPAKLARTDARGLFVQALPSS
Test: co-IP; whole CD4+ T cell lysates in RIPA buffer incubated overnight with RFX1 antibody, protein A/G PLUS-agarose beads, Western blot; lysates of healthy CD4+ T cells and of Jurkat cells

With “G9a (from UniProt Q96KQ7 1-1210) (enzyme)” the binding was “no binding”.

B1: suppressor of variegation 3-9 (Drosophila) homolog 1 (SUV39H1) (enzyme, UniProt O43463 1-412)
chain: MAENLKGCSVCCKSSWNQLQDLCRLAKLSCPALGISKRNLYDFEVEYLCDYKKIREQEYYLVKWRGYPDSESTWEPRQNLKCVRILKQFHKDLERELLRRHHRSKTPRHLDPSLANYLVQKAKQRRALRRWEQELNAKRSHLGRITVENEVDLDGPPRAFVYINEYRVGEGITLNQVAVGCECQDCLWAPTGGCCPGASLHKFAYNDQGQVRLRAGLPIYECNSRCRCGYDCPNRVVQKGIRYDLCIFRTDDGRGWGVRTLEKIRKNSFVMEYVGEIITSEEAERRGQIYDRQGATYLFDLDYVEDVYTVDAAYYGNISHFVNHSCDPNLQVYNVFIDNLDERLPRIAFFATRTIRAGEELTFDYNMQVDPVDMESTRMDSNFGLAGLPGSPKKRVRIECKCGTESCRKYLF
In the case of B1, the binding is reported as “binds”.
